Measurements reported in the supplement of paper PMC12823440, “Inhibitors supercharge kinase turnover through native proteolytic circuits” (Nature, 2025).
Counter-ions that a name gives are not always drawn. The list shows a part of the results. Hit calls seldom repeat between salt and free forms of one compound.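 Kinases, fused to nanoluciferase, were expressed in K562 cells; luminescence was measured every 4 h from 2 to 18 h as percent of control (DMSO = 100%, positive control = 0%). A time point is decreased if signal falls significantly (2 sigma). Hits were called by the authors by a rule that is not shown; the count of time points alone does not decide it.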

Chains of the proteins cited; added tags and fusions are not shown. Lines headed by an entry give the natural chain unless they say otherwise; changes in a name come on top.
UniProt Q16288, whole entry, looked up: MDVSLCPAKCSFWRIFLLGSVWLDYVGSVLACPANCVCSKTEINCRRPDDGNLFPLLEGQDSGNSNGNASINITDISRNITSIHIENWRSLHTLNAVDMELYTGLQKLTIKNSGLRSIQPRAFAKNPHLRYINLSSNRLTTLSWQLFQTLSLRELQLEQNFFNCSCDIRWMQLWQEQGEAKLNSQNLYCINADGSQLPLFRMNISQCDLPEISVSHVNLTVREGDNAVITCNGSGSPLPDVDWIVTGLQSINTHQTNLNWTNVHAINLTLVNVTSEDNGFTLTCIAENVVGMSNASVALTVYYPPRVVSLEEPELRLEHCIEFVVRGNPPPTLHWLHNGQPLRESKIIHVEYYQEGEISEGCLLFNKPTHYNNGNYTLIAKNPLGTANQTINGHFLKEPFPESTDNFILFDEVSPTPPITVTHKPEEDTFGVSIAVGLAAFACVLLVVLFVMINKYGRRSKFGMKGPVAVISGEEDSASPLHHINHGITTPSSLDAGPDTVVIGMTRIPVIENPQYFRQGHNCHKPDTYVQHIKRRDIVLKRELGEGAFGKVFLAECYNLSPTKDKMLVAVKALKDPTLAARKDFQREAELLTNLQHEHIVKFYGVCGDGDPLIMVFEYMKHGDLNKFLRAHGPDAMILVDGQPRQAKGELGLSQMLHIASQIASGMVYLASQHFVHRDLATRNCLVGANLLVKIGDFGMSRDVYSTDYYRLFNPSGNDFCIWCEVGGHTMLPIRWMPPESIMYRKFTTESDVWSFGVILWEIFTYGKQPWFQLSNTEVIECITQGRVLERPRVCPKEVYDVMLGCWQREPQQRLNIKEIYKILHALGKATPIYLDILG
UniProt O96013: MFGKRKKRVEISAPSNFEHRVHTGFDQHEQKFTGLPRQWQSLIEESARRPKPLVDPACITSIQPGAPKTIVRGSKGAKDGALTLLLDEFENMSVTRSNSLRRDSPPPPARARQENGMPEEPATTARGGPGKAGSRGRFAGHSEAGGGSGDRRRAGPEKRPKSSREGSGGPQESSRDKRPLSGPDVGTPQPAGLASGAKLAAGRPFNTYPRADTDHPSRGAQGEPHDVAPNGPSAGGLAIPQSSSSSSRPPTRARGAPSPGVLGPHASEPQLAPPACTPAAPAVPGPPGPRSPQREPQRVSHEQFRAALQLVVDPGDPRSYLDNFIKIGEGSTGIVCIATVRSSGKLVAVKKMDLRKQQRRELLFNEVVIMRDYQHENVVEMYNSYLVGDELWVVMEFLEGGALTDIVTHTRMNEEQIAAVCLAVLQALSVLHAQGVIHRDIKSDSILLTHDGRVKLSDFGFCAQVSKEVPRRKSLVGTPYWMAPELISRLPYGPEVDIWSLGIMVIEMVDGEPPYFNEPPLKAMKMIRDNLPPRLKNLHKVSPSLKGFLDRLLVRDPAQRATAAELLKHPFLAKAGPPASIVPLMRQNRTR
UniProt Q96KB5: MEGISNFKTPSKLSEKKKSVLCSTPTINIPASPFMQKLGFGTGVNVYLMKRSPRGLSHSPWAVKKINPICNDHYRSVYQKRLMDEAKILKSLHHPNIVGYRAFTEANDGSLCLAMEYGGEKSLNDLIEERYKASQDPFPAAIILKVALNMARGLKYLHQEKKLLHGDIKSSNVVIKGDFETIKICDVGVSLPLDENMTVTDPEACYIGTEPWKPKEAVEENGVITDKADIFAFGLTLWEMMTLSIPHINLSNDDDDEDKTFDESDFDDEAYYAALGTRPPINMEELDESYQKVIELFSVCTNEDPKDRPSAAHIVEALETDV
UniProt Q15118, whole entry, looked up: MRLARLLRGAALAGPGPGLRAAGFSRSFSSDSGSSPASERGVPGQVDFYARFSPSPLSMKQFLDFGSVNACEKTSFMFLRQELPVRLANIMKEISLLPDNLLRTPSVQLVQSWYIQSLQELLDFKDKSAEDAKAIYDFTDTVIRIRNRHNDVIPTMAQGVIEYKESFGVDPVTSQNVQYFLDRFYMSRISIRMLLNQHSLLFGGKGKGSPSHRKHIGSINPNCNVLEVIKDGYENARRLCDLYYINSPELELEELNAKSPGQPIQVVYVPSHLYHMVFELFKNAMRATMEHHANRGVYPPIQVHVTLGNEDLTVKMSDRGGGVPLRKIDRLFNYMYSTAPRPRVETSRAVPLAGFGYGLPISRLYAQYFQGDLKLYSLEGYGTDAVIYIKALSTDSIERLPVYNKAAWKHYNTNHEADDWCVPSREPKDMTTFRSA
UniProt P42356, whole entry, looked up: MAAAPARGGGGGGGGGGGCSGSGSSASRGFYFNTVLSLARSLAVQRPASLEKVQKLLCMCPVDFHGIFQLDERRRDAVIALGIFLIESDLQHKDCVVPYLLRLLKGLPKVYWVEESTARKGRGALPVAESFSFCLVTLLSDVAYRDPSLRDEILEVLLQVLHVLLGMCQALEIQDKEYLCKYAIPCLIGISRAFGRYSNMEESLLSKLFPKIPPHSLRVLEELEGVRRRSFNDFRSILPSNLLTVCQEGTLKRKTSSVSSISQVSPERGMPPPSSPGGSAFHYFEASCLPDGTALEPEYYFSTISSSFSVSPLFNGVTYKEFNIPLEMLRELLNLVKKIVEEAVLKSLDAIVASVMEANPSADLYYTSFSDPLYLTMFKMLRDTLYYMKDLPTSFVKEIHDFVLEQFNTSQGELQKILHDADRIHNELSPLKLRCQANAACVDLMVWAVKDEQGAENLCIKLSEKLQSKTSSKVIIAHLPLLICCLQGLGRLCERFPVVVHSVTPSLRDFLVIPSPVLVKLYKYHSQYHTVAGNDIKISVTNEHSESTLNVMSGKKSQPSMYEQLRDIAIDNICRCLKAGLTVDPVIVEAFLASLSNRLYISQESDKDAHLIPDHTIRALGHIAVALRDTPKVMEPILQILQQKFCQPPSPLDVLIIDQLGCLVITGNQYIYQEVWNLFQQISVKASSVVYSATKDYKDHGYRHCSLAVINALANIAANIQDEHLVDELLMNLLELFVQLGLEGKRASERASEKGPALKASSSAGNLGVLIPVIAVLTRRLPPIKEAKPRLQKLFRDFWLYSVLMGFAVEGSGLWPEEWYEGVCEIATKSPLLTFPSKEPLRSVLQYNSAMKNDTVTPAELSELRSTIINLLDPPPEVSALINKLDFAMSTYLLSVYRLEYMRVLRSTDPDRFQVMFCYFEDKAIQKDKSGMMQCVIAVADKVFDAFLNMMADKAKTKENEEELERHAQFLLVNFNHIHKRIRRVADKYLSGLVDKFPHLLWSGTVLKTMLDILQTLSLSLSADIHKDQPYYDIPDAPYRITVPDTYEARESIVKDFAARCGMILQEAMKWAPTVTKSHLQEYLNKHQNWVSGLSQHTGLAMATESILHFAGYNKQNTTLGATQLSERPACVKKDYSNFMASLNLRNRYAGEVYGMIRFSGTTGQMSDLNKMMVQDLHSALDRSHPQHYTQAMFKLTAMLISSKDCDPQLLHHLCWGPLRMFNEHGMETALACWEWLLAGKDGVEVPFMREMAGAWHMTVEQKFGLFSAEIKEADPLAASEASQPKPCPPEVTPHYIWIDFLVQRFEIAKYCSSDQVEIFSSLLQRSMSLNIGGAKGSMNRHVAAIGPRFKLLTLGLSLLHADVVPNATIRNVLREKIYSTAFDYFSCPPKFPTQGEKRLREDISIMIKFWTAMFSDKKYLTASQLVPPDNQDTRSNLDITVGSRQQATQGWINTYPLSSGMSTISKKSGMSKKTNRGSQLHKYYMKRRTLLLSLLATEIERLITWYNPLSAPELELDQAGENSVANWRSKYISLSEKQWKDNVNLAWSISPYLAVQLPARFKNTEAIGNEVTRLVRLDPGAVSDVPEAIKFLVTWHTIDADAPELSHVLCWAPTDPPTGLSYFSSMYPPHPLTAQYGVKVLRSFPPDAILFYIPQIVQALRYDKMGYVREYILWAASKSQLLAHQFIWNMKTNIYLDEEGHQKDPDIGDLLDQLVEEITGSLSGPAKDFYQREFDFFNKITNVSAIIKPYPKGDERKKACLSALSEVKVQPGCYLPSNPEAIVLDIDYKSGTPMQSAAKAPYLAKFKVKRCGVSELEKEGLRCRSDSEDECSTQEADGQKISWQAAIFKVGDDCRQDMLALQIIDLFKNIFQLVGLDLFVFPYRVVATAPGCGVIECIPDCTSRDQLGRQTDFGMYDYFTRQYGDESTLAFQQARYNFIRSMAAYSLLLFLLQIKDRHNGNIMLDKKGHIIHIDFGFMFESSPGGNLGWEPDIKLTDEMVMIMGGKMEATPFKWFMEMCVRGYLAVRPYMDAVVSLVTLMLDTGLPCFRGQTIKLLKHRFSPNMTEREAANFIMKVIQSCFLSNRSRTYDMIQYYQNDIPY
UniProt Q9UBF8: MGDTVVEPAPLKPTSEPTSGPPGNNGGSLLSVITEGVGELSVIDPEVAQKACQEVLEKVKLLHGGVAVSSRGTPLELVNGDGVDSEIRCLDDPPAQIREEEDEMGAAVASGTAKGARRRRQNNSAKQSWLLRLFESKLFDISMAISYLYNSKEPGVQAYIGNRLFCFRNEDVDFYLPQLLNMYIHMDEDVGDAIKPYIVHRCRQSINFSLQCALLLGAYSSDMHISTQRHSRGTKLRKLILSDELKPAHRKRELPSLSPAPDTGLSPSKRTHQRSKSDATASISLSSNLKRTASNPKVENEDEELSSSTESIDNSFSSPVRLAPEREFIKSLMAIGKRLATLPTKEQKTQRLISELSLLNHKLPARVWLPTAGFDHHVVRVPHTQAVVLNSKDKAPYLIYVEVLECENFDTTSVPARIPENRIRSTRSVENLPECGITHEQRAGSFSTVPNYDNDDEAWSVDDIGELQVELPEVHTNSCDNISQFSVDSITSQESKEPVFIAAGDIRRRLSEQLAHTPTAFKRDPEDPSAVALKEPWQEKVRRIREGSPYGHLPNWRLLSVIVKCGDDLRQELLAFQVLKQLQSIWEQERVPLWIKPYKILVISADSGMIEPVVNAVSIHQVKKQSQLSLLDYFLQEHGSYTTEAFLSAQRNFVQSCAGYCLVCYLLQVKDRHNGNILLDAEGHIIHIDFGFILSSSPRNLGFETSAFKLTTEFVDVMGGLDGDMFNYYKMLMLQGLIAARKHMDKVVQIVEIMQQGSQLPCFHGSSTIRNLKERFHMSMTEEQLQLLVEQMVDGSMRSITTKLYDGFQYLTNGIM
UniProt O15530: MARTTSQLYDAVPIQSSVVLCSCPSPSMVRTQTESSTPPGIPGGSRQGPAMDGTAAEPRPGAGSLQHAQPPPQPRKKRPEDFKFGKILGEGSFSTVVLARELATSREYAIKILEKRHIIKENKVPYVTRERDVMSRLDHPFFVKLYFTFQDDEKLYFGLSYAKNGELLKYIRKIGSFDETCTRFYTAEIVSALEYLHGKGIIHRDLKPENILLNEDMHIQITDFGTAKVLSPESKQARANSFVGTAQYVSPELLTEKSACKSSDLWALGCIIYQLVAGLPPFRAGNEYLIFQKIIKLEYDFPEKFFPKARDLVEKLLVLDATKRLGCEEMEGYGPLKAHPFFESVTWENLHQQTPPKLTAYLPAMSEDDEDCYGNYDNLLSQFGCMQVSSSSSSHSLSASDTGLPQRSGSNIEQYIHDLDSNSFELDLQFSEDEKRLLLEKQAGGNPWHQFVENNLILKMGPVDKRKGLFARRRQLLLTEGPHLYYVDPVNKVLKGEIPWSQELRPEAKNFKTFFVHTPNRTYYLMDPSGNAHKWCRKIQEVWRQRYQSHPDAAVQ
UniProt Q13131: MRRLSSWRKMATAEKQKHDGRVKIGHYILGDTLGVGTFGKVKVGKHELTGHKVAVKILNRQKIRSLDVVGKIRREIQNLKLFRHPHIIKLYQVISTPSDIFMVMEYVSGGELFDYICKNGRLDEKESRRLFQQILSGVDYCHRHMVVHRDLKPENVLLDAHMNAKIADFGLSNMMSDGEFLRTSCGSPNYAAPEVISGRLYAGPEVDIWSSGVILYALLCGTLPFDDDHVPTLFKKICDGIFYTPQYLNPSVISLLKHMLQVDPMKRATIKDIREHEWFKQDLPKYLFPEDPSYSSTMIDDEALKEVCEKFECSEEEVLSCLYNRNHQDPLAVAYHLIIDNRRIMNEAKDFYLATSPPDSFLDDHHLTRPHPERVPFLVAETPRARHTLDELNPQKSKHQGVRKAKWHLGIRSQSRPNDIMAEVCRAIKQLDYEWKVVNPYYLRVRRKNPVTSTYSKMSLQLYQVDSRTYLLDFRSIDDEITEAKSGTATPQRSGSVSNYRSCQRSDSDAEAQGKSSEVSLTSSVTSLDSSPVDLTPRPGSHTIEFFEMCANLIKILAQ

Experiments:
Assay in all cases: number of time points (of 5) at which kinase-Nluc abundance scored as decreased, DMSO-normalised (count); higher = more persistent destabilization
Settings in all cases: K562; 2-18 h
NTRK3 = NTRK3 (UniProt Q16288)
PAK4 = PAK4 (UniProt O96013)
PBK = PBK (UniProt Q96KB5)
PDGFRB = PDGFRB (UniProt P09619)
PDK1 = PDK1 (UniProt Q15118)
PIK4CA = PIK4CA (UniProt P42356)
PIK4CB = PIK4CB (UniProt Q9UBF8)
PLK1 = PLK1 (UniProt P53350)
PDPK1 = PDPK1 (UniProt O15530)
PRKAA1 = PRKAA1 (UniProt Q13131)

Measured: number of time points

Cc1ccc(S(=O)(=O)Nc2nc3ccccc3nc2Nc2ccc3nsnc3c2)cc1 [Pilaralisib analogue] (10 µM)
not listed: PDPK1 | PRKAA1
0: all other assays above

O=c1cc(N2CCOCC2)oc2c(-c3ccccc3)cccc12 (10 µM)
0: all assays above

O=C(Nc1ccc(-c2ccnc(Nc3ccc(N4CCOCC4)cc3)n2)cc1)C1CCCN1 (stereo not drawn) (10 µM)
0: all assays above

O=C1NCCc2[nH]c(-c3ccnc(-c4cnc5ccccc5c4)c3)cc21 (10 µM)
0: all assays above

N#Cc1ccc2[nH]c(O)c(-c3ccc(CN4CCOCC4)cn3)c2c1 (10 µM)
0: all assays above

O=c1oc2c(O)c(O)cc3c(=O)oc4c(O)c(O)cc1c4c23 [Ellagic acid] (10 µM)
not listed: PDGFRB
0: all other assays above

COc1cc(C(=O)NC2CCN(C)CC2)ccc1Nc1ncc2c(n1)N(C1CCCC1)CC(F)(F)C(=O)N2C (10 µM)
1: NTRK3
not listed: PLK1
0: all other assays above

Cc1[nH]c(/C=C2\C(=O)Nc3ccc(S(=O)(=O)Cc4c(Cl)cccc4Cl)cc32)c(C)c1C(=O)N1CCC[C@@H]1CN1CCCC1 (2.5 µM)
not listed: NTRK3
0: all other assays above

Brc1c(Br)c(Br)c2n[nH]nc2c1Br (10 µM)
0: all assays above

Cc1c(NC(=O)c2cc3c(s2)CCCC3)cccc1-c1cn(C)c(=O)c(Nc2ccc([C@@H]3C(=O)N(C)CCN3C)cc2)n1 (10 µM)
0: all assays above

Cc1c(Cn2c(C)nc3c(C(=O)O)cc(N4CCOCC4)cc32)cccc1C(F)(F)F (10 µM)
not listed: PDK1 | PRKAA1
0: all other assays above

O=C1Nc2ccccc2/C1=C/c1ccc(F)cc1 (10 µM)
0: all assays above

COc1cc(OC)cc(-c2cc3cnc(N)nc3nc2NC(=O)NC(C)(C)C)c1 (10 µM)
not listed: PDGFRB
0: all other assays above

CC(C)C(=O)Nc1ncc(-c2cc(C(F)F)nn2-c2c(Cl)cccc2Cl)s1 (10 µM)
0: all assays above

COc1ccc(NC(=O)N2CCN(c3nc(N)nc4c3cnn4C)[C@@H](C)C2)c(C)c1 (10 µM)
not listed: PIK4CB
0: all other assays above

Cc1ccc2c(Nc3cccc(OC(F)(F)F)c3)nccc2c1Nc1ncccc1-c1ncnc2[nH]cnc12 (10 µM)
not listed: PDGFRB
0: all other assays above

Cc1nc(-c2cnc(NC(C)C)n(C)c2=O)ccc1Oc1ccnc(-c2cnn(C)c2)c1 (2.5 µM)
1: PDPK1
0: all other assays above

O=C1Cc2c([nH]c3ccc(Br)cc23)-c2ncccc2N1 [1-Azakenpaullone] (10 µM)
0: all assays above

COc1cc2c(Nc3ccc(Br)cc3F)ncnc2cc1OCCn1ccnn1 (10 µM)
not listed: PDGFRB
0: all other assays above

CCN(CCCOc1ccc2c(Nc3cc(CC(=O)Nc4cccc(F)c4)[nH]n3)ncnc2c1)CCOP(=O)(O)O [Barasertib] (10 µM)
3: PDPK1
2: PIK4CA
not listed: PDGFRB
0: all other assays above

CC(C)(C)c1nc2c3cc[nH]c(=O)c3c3cc(F)ccc3c2[nH]1 [Pyridone 6] (10 µM)
not listed: PDGFRB
0: all other assays above

O=C1NC(=NCc2cccs2)S/C1=C\c1ccc2ncccc2c1 (10 µM)
0: all assays above

CC(C)(C)n1nc(Cc2cccc3ccccc23)c2c(N)ncnc21 (10 µM)
0: all assays above

CC(C)(C)c1cc(NC(=O)Nc2ccc(-c3cn4c(n3)sc3cc(OCCN5CCOCC5)ccc34)cc2)no1 [Quizartinib] (10 µM)
4: PDGFRB
not listed: NTRK3
0: all other assays above

CN1CCN(c2ccc(C(=O)Nc3n[nH]c4ccc(Cc5cc(F)cc(F)c5)cc34)c(NC3CCOCC3)c2)CC1 [Entrectinib] (2.5 µM)
not listed: PDGFRB
0: all other assays above

Cc1cc(C)c(/C=C2\C(=O)Nc3ccccc32)[nH]1 [Semaxinib] (10 µM)
3: NTRK3
not listed: PDGFRB
0: all other assays above

COc1cc2ncnc(Nc3cccc(Cl)c3F)c2cc1OC(=O)N1CCN(C)C[C@H]1C [Zorifertinib] (10 µM)
0: all assays above

COCCOc1cc2nccc(Nc3n[nH]c(C)c3C)c2cc1S(=O)(=O)C(C)(C)C [RIP2 kinase inhibitor 2] (2.5 µM)
0: all assays above

Cn1c(=O)n(-c2ccc(C(C)(C)C#N)cc2)c2c3cc(-c4cnc5ccccc5c4)ccc3ncc21 [Dactolisib (Tosylate)] (10 µM)
4: NTRK3 | PDPK1
0: PAK4 | PBK | PDK1
5: PIK4CA
3: PIK4CB | PLK1
1: PRKAA1

COc1cc(C(=O)NC2CCN(C)CC2)c(F)cc1Nc1ncc2c(n1)N(C1CCCC1)CC(F)(F)C(=O)N2C [TAK-960 (dihydrochloride)] (2.5 µM)
not listed: PLK1
0: all other assays above

CN(C)C(=O)/C(C#N)=C/c1ccc(-c2nc3cnc4[nH]ccc4c3n2C2CCCCC2)o1 (10 µM)
0: all assays above

O=c1oc2ccccc2c(O)c1Cc1c(O)c2ccccc2oc1=O [Dicoumarol] (10 µM)
0: all assays above

COc1c(Cl)cc2c([nH]c3cnccc32)c1NC(=O)c1cccnc1C (10 µM)
0: all assays above

CC#CC(=O)N[C@H]1CCCN(c2c(F)cc(C(N)=O)c3[nH]c(C)c(C)c23)C1 [Branebrutinib] (10 µM)
0: all assays above

CC(=O)NCC(=O)N1[C@@H]2CC[C@H]1c1ccc(Nc3ncc(C(F)(F)F)c(NC4CCC4)n3)cc12 (2.5 µM)
4: PDPK1
3: NTRK3
not listed: PDGFRB
0: all other assays above

COc1ccc(COc2ccc(Cc3cnc(N)nc3N)cc2OC)cc1 (10 µM)
not listed: NTRK3
0: all other assays above

Cc1ccc(F)c(NC(=O)Nc2ccc(-c3cccc4[nH]nc(N)c34)cc2)c1 [Linifanib] (2.5 µM)
not listed: NTRK3
0: all other assays above

COc1ccc(F)c(F)c1C(=O)c1cnc(NC2CCN(S(C)(=O)=O)CC2)nc1N (2.5 µM)
3: PDPK1
0: PAK4 | PBK | PDK1 | PLK1
2: all other assays above

COc1ccc2c(NC(=O)Nc3cccc(C(F)(F)F)n3)ccnc2c1 (10 µM)
not listed: PDGFRB
0: all other assays above
